We go through 56 compounds from PubChem BioAssay AID1487 (National Center for Advancing Translational Sciences (NCATS), 2009).

The test in a line: qHTS Assay for Modulators of Lamin A Splicing. The following applies: HeLa LMNA splicing GFP/RFP minigene ratio, 48 h. The method in brief:
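S3 HeLa cells stably expressing lamin A-EGFP splicing minigene plus DsRed2, 600 cells/well, 48 h compound exposure at 37C. Laser-scanning cytometry; analysed as GFP (500-530 nm)/RFP (575-640 nm) total intensity ratio; 0.5% DMSO vehicle.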

[1] abbreviates: measured here: RFP viability control channel.
The mark [2] stands for this setting: measured here: GFP splicing reporter channel.

This is one part of the list. These are further read-outs of the screen, such as a control signal, another cell line or another target. No call is given for them. The list favours compounds with an active or inconclusive main result. The note in brackets gives the kind of curve behind each potency; many fits are weak.

As for `O=C(c1ccccc1)N1CCN(c2ccc(NCc3ccc4c(c3)OCO4)cc2)CC1`, the AC50 under setting [1] was 15.8 µM [rising, partial curve]. For the compound `Cn1c(=O)c2c(nc(NCCO)n2CCc2ccccc2)n(C)c1=O`, the AC50 under setting [1] was 6.31 µM [rising, full curve, poor fit]. On to `c1ccc2c(NC3CC3)nc(-c3ccoc3)nc2c1`, for which, under setting [2], the AC50 is 8.91 µM [falling, partial curve].

Regarding `Cc1noc(C)c1CSc1ccccc1C(=O)Nc1nccs1`, the AC50 under setting [2] was 0.2 µM [rising, full curve, poor fit] and the AC50 under setting [1] is 1.41 µM [rising, partial curve]. With `O=C(Nc1ccc(F)cc1)Nc1ccc(N2CCCC2)c(S(=O)(=O)Nc2ccccc2Cl)c1`, the AC50 under setting [1] was 4.47 µM [rising, full curve, poor fit].

Take `O=[N+]([O-])c1ccc(N2CCNCC2)cc1Sc1nc2ccccc2[nH]1`: the AC50 under setting [1] was 14.1 µM [rising, partial curve]. In the case of `Cc1ccc(C(=O)/C=C/C(=O)c2ccc(C)cc2)cc1`, the AC50 under setting [2] was 2.82 µM [falling, partial curve, poor fit] and the AC50 under setting [1] is 3.16 µM [falling, full curve]. For `COc1cc(CNn2c(C)n[nH]c2=S)cc(Br)c1OCc1ccc(F)cc1`, the AC50 runs as follows: under setting [2], 22.4 µM [rising, single point]; under setting [1], 31.6 µM [rising, single point]. For `O=C(CSc1nnnn1C1CCCCC1)N1c2ccccc2Sc2ccccc21`, the AC50 under setting [1] was 31.6 µM [rising, single point].

Turning to `CCS(=O)(=O)N1CCN(CC(=O)NC2CCCCC2)CC1`, the AC50 under setting [2] was 0.794 µM [rising, single point]. Turning to `CCCCOc1ccc(-c2nn(-c3ccccc3)cc2C2NC(=O)NC(C)=C2C(=O)OC)cc1` (stereo unspecified), the AC50 under setting [2] was 20 µM [falling, single point] and the AC50 under setting [1] was 22.4 µM [falling, single point]. For the compound `Nc1nnc(CC(=O)N/N=C/c2cc([N+](=O)[O-])cc(Br)c2O)s1`, under setting [2], the AC50 is 0.224 µM [rising, single point]. Still for that read-out and setting: the result for `COc1ccccc1NC(=O)C1=C(C)Nc2c(C(=O)Nc3ccc(F)cc3)cnn2C1c1cccc([N+](=O)[O-])c1` (stereo unspecified) reads 8.91 µM [falling, full curve, poor fit]. `CCCCc1n[nH]c2c1/C(=N/O)CC(c1ccccc1)C2` (stereo unspecified): the AC50 under setting [2] was 11.2 µM [falling, partial curve] and the AC50 under setting [1] was 35.5 µM [falling, single point]. In the case of `Cc1ccc2nsnc2c1NC(=O)COc1ccccc1F`, the AC50 under setting [2] is 0.0112 µM [rising, full curve, poor fit].

As for `Cc1nc(NC(=O)c2ccccc2)sc1Cc1ccc2c(c1)OCO2`, the AC50 was 28.2 µM [rising, single point] under setting [2] and 35.5 µM [rising, single point] under setting [1]. As to `Cc1cccc(N2CCN(c3ncnc4c3nc3n4CCCCC3)CC2)c1C`, the AC50 under setting [1] is 35.5 µM [rising, single point]. With `CC(=O)c1cn(CC(=O)Nc2ccccc2)c2ccccc12`, the AC50 reads like this: under setting [2], 3.16 µM [rising, single point]; under setting [1], 6.31 µM [rising, single point].

Turning to `Cc1csc(-c2coc3cc(O)cc(C)c3c2=O)n1`, the AC50 by setting is: under setting [2], 31.6 µM [rising, single point]; under setting [1], 20 µM [rising, single point].

On to `O=C(COc1ccccc1)N(Cc1cc2ccccc2[nH]c1=O)CC1CCCO1` (stereo unspecified), for which the AC50 under setting [2] was 0.00501 µM [rising, full curve, poor fit].

Turning to `CCCCC(=O)Nc1ccc(C(=O)OCc2cc(=O)n3nc(C4CC4)sc3n2)cc1`, under setting [2], the AC50 is 0.355 µM [falling, full curve]. For the compound `O=C(C[n+]1cc(-c2ccc(F)cc2)n2c1CCC2)Nc1nc(-c2ccc(F)cc2)cs1`, the AC50 under setting [2] was 35.5 µM [rising, single point] and the AC50 under setting [1] is 14.1 µM [rising, partial curve, poor fit]. As to `COC1=C(Nc2ccc(C)cc2)C(=O)c2ccccc2C1=O`, the AC50 runs as follows: under setting [2], 22.4 µM [rising, single point]; under setting [1], 31.6 µM [rising, single point]. With `Cc1ccc(-c2nc3sc(C#N)c(N)n3c(=O)c2C#N)cc1`, the AC50 under setting [1] is 4.47 µM [falling, full curve, poor fit].

On to `C=CCN1CCc2nc(N)sc2CC1`, for which the AC50 under setting [1] is 35.5 µM [rising, single point]. As to `Cc1c(CNC(=O)c2nn3c(c2Cl)NC(c2ccccc2)CC3C(F)(F)F)cnn1C` (stereo unspecified), the half-maximal activity concentration (AC50) under setting [1] is 17.8 µM [rising, single point].

As to `COCCCNC(=S)N(Cc1ccccc1)Cc1ccc(F)cc1`, under setting [2], the AC50 was 17.8 µM [falling, partial curve, poor fit]. On to `CCN(CC)c1ccc(C(=O)NCc2ccc3c(c2)CCN3C(C)=O)cc1`, for which the AC50 under setting [1] is 2.51 µM [falling, partial curve, poor fit]. With `CCNc1nc(NCC)n2c(SCC(=O)Nc3ccccc3)nnc2n1`, the AC50 under setting [2] was 2.24 µM [falling, full curve, poor fit]. Take `O=C(Nc1ccc(O)cc1)c1cc2n(n1)C(C(F)(F)F)CC(c1ccco1)N2` (stereo unspecified): the AC50 under setting [1] was 17.8 µM [rising, single point]. With `COc1ccc(CC(=O)Nc2cccc(-c3nnc(-c4ccccc4)o3)c2)cc1OC`, the AC50 was 35.5 µM [falling, single point] under setting [2] and 2.82 µM [rising, single point] under setting [1]. With `Cc1ccc2nc(N/C(N)=N/S(=O)(=O)c3ccc([N+](=O)[O-])cc3)nc(C)c2c1`, the AC50 under setting [1] is 0.631 µM [rising, partial curve]. On to `O=C(Cc1ccc(S(=O)(=O)N2CCCCC2)s1)Nc1ccc(F)cc1F`, for which the AC50 under setting [1] was 14.1 µM [rising, single point]. The same measure, in the same setting: for `Cc1nc2ccccc2n1CCc1nc2c3ccccc3nc(SCC(=O)Nc3ccc(C(C)C)cc3)n2n1` the value was 20 µM [falling, partial curve, poor fit]. Take `CCCN(CCC)S(=O)(=O)c1ccc(C(=O)Nc2nnc(-c3cccc(OC)c3)o2)cc1`: the AC50 is, setting by setting: under setting [2], 10 µM [rising, partial curve, poor fit]; under setting [1], 1.12 µM [rising, full curve].

`O=C(Nc1nnc(SCc2ccc(F)cc2)s1)c1ccccn1`: the AC50 under setting [1] was 35.5 µM [rising, single point]. Turning to `O=C(O)CCN1c2ccccc2Sc2ccccc21`, the AC50 runs as follows: under setting [2], 0.398 µM [rising, partial curve]; under setting [1], 0.398 µM [rising, partial curve, poor fit]. Consider `CCCOc1ccc(C(=O)C(CN2CCCC2)c2ccccc2)cc1` (stereo unspecified), for which the AC50 under setting [1] was 35.5 µM [falling, single point]. Take `CCCc1ccc(NC(=O)C2CCN(c3cnccn3)CC2)cc1`: the AC50 under setting [1] is 35.5 µM [rising, single point]. On to `Cc1csc(SCC(=O)Nc2cc(C(C)(C)C)nn2-c2ccccc2)n1`, for which the AC50 under setting [1] is 10 µM [rising, partial curve, poor fit]. On the same count and under the same terms, for `CCNC(=S)N1CCc2cc(OC)c(OC)cc2C1COc1ccc(OC)cc1` (stereo unspecified) the value was 35.5 µM [rising, single point].

In the case of `CN(Cc1ccco1)c1nc(-c2ccoc2)nc2ccccc12`, the AC50 was 11.2 µM [falling, partial curve, poor fit] under setting [2] and 15.8 µM [falling, single point] under setting [1]. In the case of `CCN1CCN(C(c2ccccc2)c2c(O)cc(C)n(CCOC)c2=O)CC1` (stereo unspecified), the AC50 under setting [2] was 0.631 µM [rising, full curve, poor fit]. For the compound `CSc1cccc(NC(=O)Cn2nnc(C(=O)NCCc3ccccc3)c2N)c1`, the AC50 under setting [1] is 0.708 µM [falling, partial curve]. Turning to `CS(=O)(=O)N(CC(=O)N1CCN(c2ccccc2)CC1)c1ccc(Cl)c(C(F)(F)F)c1`, the AC50 under setting [1] is 31.6 µM [rising, single point]. Take `COc1cc(/C=N/NC(N)=S)cc(Br)c1OCc1ccccc1F`: the AC50 by setting is: under setting [2], 12.6 µM [rising, partial curve]; under setting [1], 31.6 µM [rising, single point].

Consider `CC1Cc2nc(SCC(=O)c3ccccc3)n(Cc3ccccc3)c(=O)c2S1` (stereo unspecified), for which the AC50 under setting [1] is 35.5 µM [rising, single point]. As to `Cc1noc(C)c1-c1ccc2ncnc(NCc3ccccc3)c2c1`, the AC50 was 0.891 µM [falling, full curve, poor fit] under setting [2] and 11.2 µM [rising, partial curve] under setting [1]. Turning to `C=CCOc1ccc(/C=N/NC(=O)CN(c2cc(Cl)ccc2OC)S(=O)(=O)c2ccc(C)c([N+](=O)[O-])c2)cc1`, the concentration at half-maximal activity (AC50) under setting [1] is 6.31 µM [rising, single point].

With `Cc1cc(C)c2nc(NC(=O)[C@@H](NC(=O)c3cccc(S(=O)(=O)N4CCOCC4)c3)C(C)C)sc2c1`, the AC50 was 14.1 µM [rising, single point] under setting [2] and 20 µM [rising, single point] under setting [1]. On to `CC1CC(N(C(=O)c2ccccc2Cl)c2ccccc2)c2ccccc2N1` (stereo unspecified), for which, under setting [2], the AC50 is 12.6 µM [rising, partial curve]. In the case of `Cc1cc(C)cc(N2CCn3c2nc2c3c(=O)n(CCc3ccccc3)c(=O)n2C)c1`, under setting [2], the AC50 is 7.94 µM [falling, full curve, poor fit].

For `Cc1ccc(NCC(=O)N/N=C\c2ccc([N+](=O)[O-])o2)cc1`, the AC50 is, setting by setting: under setting [2], 35.5 µM [falling, single point]; under setting [1], 35.5 µM [falling, single point]. `CCCCSc1nc2ccc(Nc3nc(N4CCOCC4)nc(N4CCOCC4)n3)cc2s1`: the AC50 is 35.5 µM [falling, single point] under setting [2] and 28.2 µM [falling, partial curve] under setting [1].

Regarding `Cc1ccc(/C=N/Nc2nc3ccccc3s2)o1`, the concentration at half-maximal activity (AC50) under setting [1] was 12.6 µM [rising, partial curve]. As for `Cc1cccc(N2CCN(C(=O)c3ccoc3C)CC2)c1C`, the AC50 reads like this: under setting [2], 2.82 µM [rising, partial curve, poor fit]; under setting [1], 7.08 µM [rising, partial curve, poor fit].
